Values quoted from earlier work as cited in patent publication US20260200971A1, “METHODS FOR ISOLATING, DETECTING, AND QUANTIFYING INTERCELLULAR PROTEINS” (Fred Hutchinson Cancer Center, priority 2022, published 2026).
At least one compound was matched to its structure with a doubt left.

Chains of the proteins cited; added tags and fusions are not shown. Residues count along the entry.
UniProt P22629, 25-183, species assumed: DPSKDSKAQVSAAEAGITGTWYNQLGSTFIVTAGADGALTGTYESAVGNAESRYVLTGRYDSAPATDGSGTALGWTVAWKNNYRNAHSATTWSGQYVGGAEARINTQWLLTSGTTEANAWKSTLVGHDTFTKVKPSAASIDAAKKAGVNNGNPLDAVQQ

Biological target: Streptavidin (Streptomyces avidinii, UniProt P22629)
Settings: binding to streptavidin; cited from earlier work

## CCN1C(=O)N[C@H]2CS[C@@H](CCCCC(=O)O)[C@H]21 [N3-ethyl biotin, N3′-ethyl biotin]
  Kd: 0.8 nM
  Koff: 0.058 s⁻¹
  Kon: 1.5e5 1/M 1/s
